The series is described as follows: in vitro. Particulars: human, Caco-2.

As to `CC(C)NCC(O)COc1ccc(CC(N)=O)cc1` (stereo not shown) [atenolol, reference compound], the Papp A→B (in general, how fast a substance crosses the layer from the apical side) at 150 min, 20 µM is 0.48 ± 0.07 ×10⁻⁶ cm/s.

The record behind these values is article PMC4926073, “Absorption and Transport of Sea Cucumber Saponins from Apostichopus japonicus” (Marine Drugs, 2016).
